Experimental data reported in the supplement of paper PMC10849652.
The other results are listed elsewhere or left out.

Sequences of proteins named here, by UniProt entry; tags and fusion partners are left off. A change or cut given only in a name is not applied to a line headed by its entry.
UniProt Q96T58, whole entry, looked up: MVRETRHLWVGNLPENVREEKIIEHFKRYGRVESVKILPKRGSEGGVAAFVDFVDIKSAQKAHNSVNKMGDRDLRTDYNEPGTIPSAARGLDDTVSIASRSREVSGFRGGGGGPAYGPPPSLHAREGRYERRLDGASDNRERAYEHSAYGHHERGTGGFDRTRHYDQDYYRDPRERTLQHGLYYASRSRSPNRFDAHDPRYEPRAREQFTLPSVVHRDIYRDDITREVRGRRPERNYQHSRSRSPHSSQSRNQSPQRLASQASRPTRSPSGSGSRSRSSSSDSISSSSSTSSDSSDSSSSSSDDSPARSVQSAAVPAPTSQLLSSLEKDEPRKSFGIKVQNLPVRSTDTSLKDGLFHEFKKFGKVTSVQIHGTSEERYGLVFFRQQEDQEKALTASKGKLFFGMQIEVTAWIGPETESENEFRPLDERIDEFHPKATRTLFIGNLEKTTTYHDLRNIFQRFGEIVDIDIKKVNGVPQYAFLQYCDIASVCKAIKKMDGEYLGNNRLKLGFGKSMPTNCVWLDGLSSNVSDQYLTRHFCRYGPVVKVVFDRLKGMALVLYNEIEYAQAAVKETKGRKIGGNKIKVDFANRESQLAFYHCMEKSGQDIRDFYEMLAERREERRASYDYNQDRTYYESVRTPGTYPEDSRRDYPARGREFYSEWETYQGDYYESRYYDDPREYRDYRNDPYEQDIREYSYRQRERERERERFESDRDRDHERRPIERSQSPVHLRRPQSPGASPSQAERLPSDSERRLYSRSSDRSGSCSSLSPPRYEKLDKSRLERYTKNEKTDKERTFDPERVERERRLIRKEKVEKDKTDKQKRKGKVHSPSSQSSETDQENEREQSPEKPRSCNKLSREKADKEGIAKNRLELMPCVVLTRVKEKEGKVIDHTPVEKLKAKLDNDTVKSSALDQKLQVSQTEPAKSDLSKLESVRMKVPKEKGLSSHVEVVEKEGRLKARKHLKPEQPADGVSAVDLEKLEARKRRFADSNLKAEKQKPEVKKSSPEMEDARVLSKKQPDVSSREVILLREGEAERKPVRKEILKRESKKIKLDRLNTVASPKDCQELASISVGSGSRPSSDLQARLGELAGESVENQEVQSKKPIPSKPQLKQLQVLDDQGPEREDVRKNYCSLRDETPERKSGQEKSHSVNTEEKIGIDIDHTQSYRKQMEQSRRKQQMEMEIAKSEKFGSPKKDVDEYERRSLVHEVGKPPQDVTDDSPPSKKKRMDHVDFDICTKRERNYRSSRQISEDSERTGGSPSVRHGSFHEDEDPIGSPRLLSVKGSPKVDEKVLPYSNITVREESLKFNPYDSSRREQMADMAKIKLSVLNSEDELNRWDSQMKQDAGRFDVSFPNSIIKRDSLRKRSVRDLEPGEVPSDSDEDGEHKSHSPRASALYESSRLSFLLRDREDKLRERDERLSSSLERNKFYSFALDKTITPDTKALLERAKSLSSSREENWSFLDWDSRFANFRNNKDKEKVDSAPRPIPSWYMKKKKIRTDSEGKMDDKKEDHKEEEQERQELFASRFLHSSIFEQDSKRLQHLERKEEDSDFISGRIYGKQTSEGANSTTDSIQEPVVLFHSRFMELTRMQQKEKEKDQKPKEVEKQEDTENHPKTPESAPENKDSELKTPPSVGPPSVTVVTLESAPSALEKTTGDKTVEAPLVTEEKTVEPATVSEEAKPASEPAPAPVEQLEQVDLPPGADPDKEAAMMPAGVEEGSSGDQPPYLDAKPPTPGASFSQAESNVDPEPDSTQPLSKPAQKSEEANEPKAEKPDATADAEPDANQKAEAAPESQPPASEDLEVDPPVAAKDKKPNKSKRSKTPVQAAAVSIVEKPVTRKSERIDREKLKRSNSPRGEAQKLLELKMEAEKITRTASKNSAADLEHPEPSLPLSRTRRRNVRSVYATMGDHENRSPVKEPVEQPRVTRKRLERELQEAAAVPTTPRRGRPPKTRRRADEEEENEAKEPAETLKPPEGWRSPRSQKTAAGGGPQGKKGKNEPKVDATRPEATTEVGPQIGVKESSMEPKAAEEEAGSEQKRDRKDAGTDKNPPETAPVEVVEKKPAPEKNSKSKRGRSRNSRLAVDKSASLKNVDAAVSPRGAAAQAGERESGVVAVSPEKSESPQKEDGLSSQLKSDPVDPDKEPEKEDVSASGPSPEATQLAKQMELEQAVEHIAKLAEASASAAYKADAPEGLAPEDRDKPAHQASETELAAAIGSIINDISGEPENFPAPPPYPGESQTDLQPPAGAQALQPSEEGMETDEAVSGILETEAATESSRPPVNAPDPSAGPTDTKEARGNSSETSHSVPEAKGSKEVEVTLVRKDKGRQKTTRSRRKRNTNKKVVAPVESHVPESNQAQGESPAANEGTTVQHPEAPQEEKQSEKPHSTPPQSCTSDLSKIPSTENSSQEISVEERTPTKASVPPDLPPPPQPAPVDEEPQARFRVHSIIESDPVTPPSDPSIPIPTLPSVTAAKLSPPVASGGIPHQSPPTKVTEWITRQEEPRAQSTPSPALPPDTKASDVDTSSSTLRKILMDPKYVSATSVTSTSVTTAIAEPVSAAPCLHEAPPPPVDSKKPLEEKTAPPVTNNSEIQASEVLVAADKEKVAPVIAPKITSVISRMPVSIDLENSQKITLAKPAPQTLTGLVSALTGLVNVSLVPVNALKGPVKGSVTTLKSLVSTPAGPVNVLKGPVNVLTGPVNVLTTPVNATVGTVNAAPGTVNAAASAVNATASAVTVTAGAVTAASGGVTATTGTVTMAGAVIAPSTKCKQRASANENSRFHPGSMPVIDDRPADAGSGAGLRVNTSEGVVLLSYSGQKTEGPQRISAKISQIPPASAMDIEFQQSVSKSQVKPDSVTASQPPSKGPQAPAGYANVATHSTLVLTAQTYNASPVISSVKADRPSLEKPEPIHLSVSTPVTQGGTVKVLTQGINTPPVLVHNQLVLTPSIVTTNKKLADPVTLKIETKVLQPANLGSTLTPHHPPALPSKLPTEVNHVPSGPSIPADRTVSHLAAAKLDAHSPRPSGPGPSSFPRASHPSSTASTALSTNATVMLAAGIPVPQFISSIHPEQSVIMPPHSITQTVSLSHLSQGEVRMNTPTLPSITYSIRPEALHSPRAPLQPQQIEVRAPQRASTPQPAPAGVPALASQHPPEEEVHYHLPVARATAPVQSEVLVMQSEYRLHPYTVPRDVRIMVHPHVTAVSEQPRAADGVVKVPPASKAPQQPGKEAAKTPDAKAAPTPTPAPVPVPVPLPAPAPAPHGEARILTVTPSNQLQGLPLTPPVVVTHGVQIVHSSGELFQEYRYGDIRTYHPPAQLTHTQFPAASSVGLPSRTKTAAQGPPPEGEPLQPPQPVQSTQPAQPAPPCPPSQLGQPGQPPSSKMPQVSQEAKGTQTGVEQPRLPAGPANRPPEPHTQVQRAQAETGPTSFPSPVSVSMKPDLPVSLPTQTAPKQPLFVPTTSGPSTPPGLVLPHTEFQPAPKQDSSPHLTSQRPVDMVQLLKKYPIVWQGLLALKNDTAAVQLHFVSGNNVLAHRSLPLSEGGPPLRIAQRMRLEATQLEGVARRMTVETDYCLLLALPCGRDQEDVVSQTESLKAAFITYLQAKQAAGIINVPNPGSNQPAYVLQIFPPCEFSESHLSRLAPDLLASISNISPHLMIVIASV
UniProt Q01130: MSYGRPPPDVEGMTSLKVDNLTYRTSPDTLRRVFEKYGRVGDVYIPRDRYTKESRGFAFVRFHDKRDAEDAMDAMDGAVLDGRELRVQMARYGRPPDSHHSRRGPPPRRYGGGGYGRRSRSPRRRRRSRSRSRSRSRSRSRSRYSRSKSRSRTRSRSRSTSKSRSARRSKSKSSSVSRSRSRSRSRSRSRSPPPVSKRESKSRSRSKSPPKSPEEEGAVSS
UniProt P50502: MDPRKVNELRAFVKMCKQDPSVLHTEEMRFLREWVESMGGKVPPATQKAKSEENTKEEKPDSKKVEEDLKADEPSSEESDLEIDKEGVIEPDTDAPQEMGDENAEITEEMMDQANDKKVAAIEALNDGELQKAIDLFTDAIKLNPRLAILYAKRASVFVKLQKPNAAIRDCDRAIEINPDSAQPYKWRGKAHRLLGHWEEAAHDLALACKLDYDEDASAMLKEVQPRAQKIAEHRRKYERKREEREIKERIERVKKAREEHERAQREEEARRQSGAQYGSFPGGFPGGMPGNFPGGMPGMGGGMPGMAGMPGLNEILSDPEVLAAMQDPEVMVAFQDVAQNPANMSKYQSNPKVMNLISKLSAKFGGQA
UniProt O95793: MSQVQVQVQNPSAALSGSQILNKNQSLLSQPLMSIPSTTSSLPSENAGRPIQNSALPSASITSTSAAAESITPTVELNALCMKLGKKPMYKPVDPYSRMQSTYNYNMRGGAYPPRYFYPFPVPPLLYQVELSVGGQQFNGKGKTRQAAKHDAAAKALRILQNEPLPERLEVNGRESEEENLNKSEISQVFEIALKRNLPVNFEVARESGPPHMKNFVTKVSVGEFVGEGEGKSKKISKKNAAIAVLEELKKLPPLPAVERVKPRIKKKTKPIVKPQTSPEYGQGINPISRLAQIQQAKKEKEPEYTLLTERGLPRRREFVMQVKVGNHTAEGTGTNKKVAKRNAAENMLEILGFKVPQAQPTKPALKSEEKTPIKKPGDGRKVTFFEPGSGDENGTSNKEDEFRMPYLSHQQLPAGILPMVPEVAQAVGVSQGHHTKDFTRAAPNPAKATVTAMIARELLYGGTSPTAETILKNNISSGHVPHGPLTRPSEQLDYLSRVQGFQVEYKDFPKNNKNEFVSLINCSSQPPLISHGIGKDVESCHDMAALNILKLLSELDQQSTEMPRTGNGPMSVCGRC
UniProt Q9HD15: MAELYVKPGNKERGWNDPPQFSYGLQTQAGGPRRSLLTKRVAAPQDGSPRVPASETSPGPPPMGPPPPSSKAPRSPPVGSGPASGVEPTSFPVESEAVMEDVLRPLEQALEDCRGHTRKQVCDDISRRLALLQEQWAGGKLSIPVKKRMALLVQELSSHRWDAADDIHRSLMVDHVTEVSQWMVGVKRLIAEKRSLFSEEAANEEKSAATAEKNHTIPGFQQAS
UniProt P09132: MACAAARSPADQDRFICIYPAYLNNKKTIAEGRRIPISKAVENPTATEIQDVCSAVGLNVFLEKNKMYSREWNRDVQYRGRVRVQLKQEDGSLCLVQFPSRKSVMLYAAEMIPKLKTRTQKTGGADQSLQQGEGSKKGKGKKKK
UniProt P11831: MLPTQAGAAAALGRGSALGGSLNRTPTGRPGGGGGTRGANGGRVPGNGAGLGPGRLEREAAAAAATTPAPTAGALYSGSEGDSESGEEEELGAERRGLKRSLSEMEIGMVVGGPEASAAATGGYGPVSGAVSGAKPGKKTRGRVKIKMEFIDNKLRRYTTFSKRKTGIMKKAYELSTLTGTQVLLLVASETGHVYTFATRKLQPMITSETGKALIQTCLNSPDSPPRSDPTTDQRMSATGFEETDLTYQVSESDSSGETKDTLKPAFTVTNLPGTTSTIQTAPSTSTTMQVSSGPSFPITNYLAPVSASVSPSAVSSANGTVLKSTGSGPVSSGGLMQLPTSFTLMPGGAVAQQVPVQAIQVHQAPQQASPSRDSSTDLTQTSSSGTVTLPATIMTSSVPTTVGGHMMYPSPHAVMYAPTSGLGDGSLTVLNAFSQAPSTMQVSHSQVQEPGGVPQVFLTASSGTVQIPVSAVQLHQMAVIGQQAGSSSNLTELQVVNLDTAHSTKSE
UniProt Q8N0X7: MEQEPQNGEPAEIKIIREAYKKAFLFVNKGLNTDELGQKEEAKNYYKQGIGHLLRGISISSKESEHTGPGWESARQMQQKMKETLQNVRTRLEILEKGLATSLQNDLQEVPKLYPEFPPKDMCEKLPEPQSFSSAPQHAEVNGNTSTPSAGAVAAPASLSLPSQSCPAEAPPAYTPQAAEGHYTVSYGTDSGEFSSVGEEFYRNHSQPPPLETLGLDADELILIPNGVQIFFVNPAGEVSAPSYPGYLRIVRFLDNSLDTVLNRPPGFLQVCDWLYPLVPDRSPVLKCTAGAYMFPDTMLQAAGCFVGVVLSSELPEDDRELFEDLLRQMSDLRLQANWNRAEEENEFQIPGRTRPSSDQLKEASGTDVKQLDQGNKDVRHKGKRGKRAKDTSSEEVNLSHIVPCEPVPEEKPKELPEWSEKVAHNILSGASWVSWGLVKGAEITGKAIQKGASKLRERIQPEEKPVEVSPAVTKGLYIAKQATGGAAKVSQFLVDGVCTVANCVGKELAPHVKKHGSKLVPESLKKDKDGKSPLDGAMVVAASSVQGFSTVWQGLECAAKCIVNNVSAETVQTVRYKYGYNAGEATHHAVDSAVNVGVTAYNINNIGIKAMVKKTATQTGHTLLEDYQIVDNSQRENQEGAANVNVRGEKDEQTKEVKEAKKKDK
UniProt Q13242, whole entry, looked up: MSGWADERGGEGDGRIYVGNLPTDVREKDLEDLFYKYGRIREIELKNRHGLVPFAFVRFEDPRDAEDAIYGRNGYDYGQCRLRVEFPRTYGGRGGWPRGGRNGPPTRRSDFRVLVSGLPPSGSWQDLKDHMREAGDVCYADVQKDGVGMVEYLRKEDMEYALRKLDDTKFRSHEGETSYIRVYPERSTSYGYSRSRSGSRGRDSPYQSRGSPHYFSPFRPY

How the values were obtained:
Assay in all cases: log2 fold change, soluble protein after heating vs DMSO (PISA); higher = thermal stabilisation; K562 lysate, 10 uM; active = over 0.2 and 3.5 SD of the protein, either way, in both replicates (recomputed)
[1] = compound: Cc1cn(-c2cc(NC(=O)c3ccc(C)c(Nc4nccc(-c5cccnc5)n4)c3)cc(C(F)(F)F)c2)cn1 [nilotinib]
Method in brief: (§1)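 Following dounce homogenisation of K562 pellets in PBS pH 7.4 with 1 mM MgCl2, crude extract at 1 mg/mL protein was incubated for 30 min with 10 μM compound. Aliquots were then heated for 3 min over 48°C-58°C and pooled, NP-40 was added to 0.5% at 4°C, and soluble protein was recovered as the supernatant at 21,000xg for 90 min. Channel-sum-equalised TMTpro 16plex LC-MS/MS quantified this protein. Each value, from duplicates, is a log-two fold change in thermal stability relative to solvent controls.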

[2] = compound: Cc1nc(Nc2n[nH]c3c2CN(C(=O)N[C@H](CN(C)C)c2ccccc2)C3(C)C)c2sccc2n1
Method in brief: as §1

[3] = compound: Cc1nc(Nc2ncc(C(=O)Nc3c(C)cccc3Cl)s2)cc(N2CCN(CCO)CC2)n1 [dasatinib]
Method in brief: as §1

[4] = compound: Cc1ncc(-c2ccnc(Nc3ccc(S(C)(=O)=O)cc3)n2)n1C(C)C
Method in brief: as §1

[5] = compound: Cn1cc(-c2ccc3c(c2)CCN3C(=O)Cc2cccc(C(F)(F)F)c2)c2c(N)ncnc21
Method in brief: as §1

[6] = compound: Cn1cc(CNCC2CCN(c3ncc(C(=O)NO)cn3)CC2)c2ccccc21 [quisinostat]
Method in brief: as §1

[7] = compound: Cn1cncc1[C@@](N)(c1ccc(Cl)cc1)c1ccc2c(c1)c(-c1cccc(Cl)c1)cc(=O)n2C [tipifarnib]
Method in brief: as §1

[8] = compound: NC(=O)Nc1cc(-c2cccc(F)c2)sc1C(=O)N[C@H]1CCCNC1
Method in brief: as §1

[9] = compound: NC(=O)c1cnc(N[C@@H]2CCCC[C@@H]2N)nc1Nc1cccc(-n2nccn2)c1
Method in brief: as §1

[10] = compound: NC1(c2ccc(-c3nc4ccn5c(=O)[nH]nc5c4cc3-c3ccccc3)cc2)CCC1
Method in brief: as §1

Measured: log2 fold change

SPEN (UniProt Q96T58)
inactive: [1] -0.034 | [2] -0.099 | [3] -0.066 | [4] 0.098 | [5] 0.088 | [6] -0.027 | [7] -0.055 | [8] -0.049 | [9] -0.029 | [10] -0.012

SPTB isoform 2 (UniProt P11277)
inactive: [1] -0.012 | [2] -0.001 | [3] -0.092 | [4] 0.045 | [5] 0.048 | [6] -0.004 | [7] -0.014 | [8] 0.024 | [9] 0.008 | [10] -0.057

SRSF2 (UniProt Q01130)
inactive: [1] -0.038 | [2] 0 | [3] -0.003 | [4] -0.029 | [5] 0.033 | [6] -0.056 | [7] 0.01 | [8] 0.002 | [9] -0.008 | [10] -0.01

SRSF1 (UniProt Q07955)
inactive: [1] -0.023 | [2] -0.003 | [3] 0.037 | [4] -0.013 | [5] -0.004 | [6] -0.057 | [7] -0.015 | [8] -0.016 | [9] 0.045 | [10] -0.022

ST13 (UniProt P50502)
inactive: [1] 0.045 | [2] -0.034 | [3] 0 | [4] -0.027 | [5] 0.01 | [6] 0.017 | [7] 0.028 | [8] -0.017 | [9] -0.015 | [10] 0.044

Random excerpt: two records from the list
SPTB isoform 2 (UniProt P11277)
inactive: [1] -0.012 | [2] -0.001 | [3] -0.092 | [4] 0.045 | [5] 0.048 | [6] -0.004 | [7] -0.014 | [8] 0.024 | [9] 0.008 | [10] -0.057

SRSF2 (UniProt Q01130)
inactive: [1] -0.038 | [2] 0 | [3] -0.003 | [4] -0.029 | [5] 0.033 | [6] -0.056 | [7] 0.01 | [8] 0.002 | [9] -0.008 | [10] -0.01

(listing goes on)

STAU1 (UniProt O95793)
inactive: [1] -0.008 | [2] -0.024 | [3] -0.004 | [4] -0.002 | [5] 0.007 | [6] 0.003 | [7] -0.009 | [8] 0.037 | [9] 0.001 | [10] 0.005

SPTBN4 (UniProt Q9H254)
inactive: [1] -0.07 | [2] 0.103 | [3] -0.124 | [4] 0.074 | [5] -0.032 | [6] 0.081 | [7] -0.096 | [8] -0.017 | [9] 0.045 | [10] -0.067

SRA1 (UniProt Q9HD15)
inactive: [1] 0.005 | [2] -0.014 | [3] 0.068 | [4] -0.001 | [5] -0.043 | [6] -0.032 | [7] 0.022 | [8] 0.009 | [9] -0.017 | [10] 0.02

STARD3NL (UniProt O95772)
inactive: [1] -0.104 | [2] -0.055 | [3] 0.056 | [4] 0.12 | [5] 0.079 | [6] -0.055 | [7] 0.117 | [8] 0.016 | [9] 0.073 | [10] 0.009

SPG21 (UniProt Q9NZD8)
inactive: [1] 0.02 | [2] -0.019 | [3] 0.003 | [4] 0.036 | [5] 0.053 | [6] 0.036 | [7] -0.033 | [8] -0.002 | [9] 0.061 | [10] 0.024

SPIRE1 (UniProt Q08AE8)
inactive: [1] 0.064 | [2] 0.011 | [3] 0.037 | [4] -0.03 | [5] 0.025 | [6] -0.186 | [7] 0.055 | [8] -0.032 | [9] 0.042 | [10] -0.01

SQSTM1 (UniProt Q13501)
inactive: [1] 0.006 | [2] 0.028 | [3] 0.021 | [4] 0.012 | [5] -0.014 | [6] -0.005 | [7] 0.021 | [8] 0.042 | [9] 0.007 | [10] 0.02

SRP19 (UniProt P09132)
inactive: [1] 0.016 | [2] -0.018 | [3] -0.061 | [4] -0.01 | [5] 0.017 | [6] -0.032 | [7] -0.066 | [8] 0.052 | [9] -0.01 | [10] -0.035

STAT1 (UniProt P42224)
inactive: [1] -0.047 | [2] 0.014 | [3] -0.042 | [4] -0.01 | [5] 0.005 | [6] -0.054 | [7] -0.007 | [8] 0.048 | [9] -0.004 | [10] -0.024

SSX2 (UniProt Q16385)
inactive: [1] 0.095 | [2] 0.029 | [3] 0.086 | [4] -0.024 | [5] 0.003 | [6] 0.07 | [7] 0.032 | [8] -0.005 | [9] -0.072 | [10] 0.082

SRSF10 (UniProt O75494)
inactive: [1] -0.233 | [2] 0.001 | [3] 0.025 | [4] -0.019 | [5] 0.044 | [6] 0.003 | [7] -0.051 | [8] -0.045 | [9] -0.039 | [10] 0.026

SRP68 (UniProt Q9UHB9)
inactive: [1] 0.056 | [2] 0.009 | [3] -0.042 | [4] 0.007 | [5] 0.036 | [6] -0.023 | [7] -0.014 | [8] -0.008 | [9] -0.014 | [10] 0.009

SRF (UniProt P11831)
inactive: [1] -0.15 | [2] 0.091 | [3] -0.023 | [4] -0.058 | [5] 0.047 | [6] -0.064 | [7] -0.062 | [8] -0.019 | [9] -0.004 | [10] -0.029

SPART (UniProt Q8N0X7)
inactive: [1] 0.032 | [2] 0.029 | [3] 0.009 | [4] 0.021 | [5] -0.027 | [6] 0.093 | [7] -0.12 | [8] 0.005 | [9] -0.022 | [10] 0.018

SRGAP2 (UniProt O75044)
inactive: [1] -0.062 | [2] -0.028 | [3] -0.005 | [4] 0.018 | [5] 0.016 | [6] 0.017 | [7] 0.001 | [8] 0.004 | [9] 0.003 | [10] 0.015

SSB (UniProt P05455)
inactive: [1] -0.013 | [2] -0.014 | [3] -0.008 | [4] 0.006 | [5] -0.018 | [6] 0.099 | [7] 0.022 | [8] 0.001 | [9] -0.013 | [10] 0.012

SRFBP1 (UniProt Q8NEF9)
inactive: [1] -0.02 | [2] -0.015 | [3] -0.101 | [4] -0.011 | [5] -0.113 | [6] 0.014 | [7] 0.003 | [8] 0.031 | [9] -0.032 | [10] 0.054

STEAP3 isoform 2 (UniProt Q658P3)
inactive: [1] -0.039 | [2] 0.016 | [3] 0.202 | [4] -0.028 | [5] -0.024 | [6] -0.05 | [7] 0.007 | [8] -0.112 | [9] 0.015

SPG7 (UniProt Q9UQ90)
inactive: [1] -0.004 | [2] -0.065 | [3] -0.098 | [4] 0.023 | [5] 0.015 | [6] 0.08 | [7] -0.158 | [8] 0.054 | [9] -0.118 | [10] -0.027

SSRP1 (UniProt Q08945)
inactive: [1] 0.045 | [2] -0.004 | [3] -0.002 | [4] -0.006 | [5] 0.028 | [6] 0.013 | [7] -0.03 | [8] 0.018 | [9] 0 | [10] 0.025

SRSF4 (UniProt Q08170)
inactive: [1] 0.003 | [2] -0.001 | [3] -0.003 | [4] 0.003 | [5] 0.049 | [6] 0.036 | [7] 0.03 | [8] -0.062 | [9] 0.025 | [10] 0.011

SRPRB (UniProt Q9Y5M8)
inactive: [1] 0.006 | [2] 0.015 | [3] -0.035 | [4] -0.053 | [5] -0.012 | [6] 0.018 | [7] -0.04 | [8] -0.024 | [9] -0.006 | [10] 0.034

SRSF9 (UniProt Q13242)
inactive: [1] 0.02 | [2] 0.01 | [3] -0.079 | [4] 0.02 | [5] -0.005 | [6] 0.008 | [7] 0.047 | [8] -0.012 | [9] 0.029 | [10] -0.002

SRSF11 (UniProt Q05519)
inactive: [1] 0.016 | [2] -0.046 | [3] -0.032 | [4] 0.002 | [5] -0.008 | [6] 0.04 | [7] 0.012 | [8] -0.036 | [9] 0.002 | [10] 0.037

SRSF8 (UniProt Q9BRL6)
inactive: [1] 0 | [2] 0.031 | [3] 0.022 | [4] 0.018 | [5] 0.026 | [6] 0.02 | [7] -0.006 | [8] -0.012 | [9] 0.01 | [10] 0.003
